Experimental data as given in publication PMC7288960.
No constants are given. Whether binding was seen depends on the method and setting. Binding seen in cells or lysates may run through a third protein. Some entries that bind do so weakly or less than the wild type. Sequences can lack the tags named with a protein.

Biological target: T1, GSG2-Flag (Haploid germ cell-specific nuclear protein kinase, Haspin) (UniProt Q8TF76)
T1 sequence: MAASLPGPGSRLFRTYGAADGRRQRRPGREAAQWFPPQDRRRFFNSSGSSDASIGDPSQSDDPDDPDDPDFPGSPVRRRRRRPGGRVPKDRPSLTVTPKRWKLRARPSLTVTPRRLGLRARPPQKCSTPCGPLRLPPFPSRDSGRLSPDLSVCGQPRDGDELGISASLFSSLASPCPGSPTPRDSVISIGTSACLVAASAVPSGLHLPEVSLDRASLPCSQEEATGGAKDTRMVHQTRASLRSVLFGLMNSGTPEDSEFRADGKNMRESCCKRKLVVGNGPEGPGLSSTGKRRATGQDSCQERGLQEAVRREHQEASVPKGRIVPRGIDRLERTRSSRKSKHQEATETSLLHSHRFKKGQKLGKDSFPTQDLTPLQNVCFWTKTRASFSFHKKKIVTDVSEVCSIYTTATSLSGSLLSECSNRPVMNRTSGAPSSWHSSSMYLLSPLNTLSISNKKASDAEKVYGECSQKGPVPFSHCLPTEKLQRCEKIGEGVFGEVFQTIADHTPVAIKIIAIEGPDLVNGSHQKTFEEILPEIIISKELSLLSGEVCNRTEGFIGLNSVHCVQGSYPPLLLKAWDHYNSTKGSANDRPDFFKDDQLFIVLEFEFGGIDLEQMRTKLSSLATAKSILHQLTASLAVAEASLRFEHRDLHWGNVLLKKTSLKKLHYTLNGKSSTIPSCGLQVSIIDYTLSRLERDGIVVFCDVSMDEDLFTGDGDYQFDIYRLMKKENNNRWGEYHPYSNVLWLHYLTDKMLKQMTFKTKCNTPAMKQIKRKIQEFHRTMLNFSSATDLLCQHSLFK
Experiment: co-IP; whole cell lysate of T24 cells with or without GSG2-Flag overexpression; precipitated by anti-Flag or anti-KIF15; immunocomplex detected with anti-Flag, anti-GSG2 and anti-KIF15

binding: binds
B1: KIF15 (kinesin-12) (protein, UniProt Q9NS87 1-1388)
chain: MAPGCKTELRSVTNGQSNQPSNEGDAIKVFVRIRPPAERSGSADGEQNLCLSVLSSTSLRLHSNPEPKTFTFDHVADVDTTQESVFATVAKSIVESCMSGYNGTIFAYGQTGSGKTFTMMGPSESDNFSHNLRGVIPRSFEYLFSLIDREKEKAGAGKSFLCKCSFIEIYNEQIYDLLDSASAGLYLREHIKKGVFVVGAVEQVVTSAAEAYQVLSGGWRNRRVASTSMNRESSRSHAVFTITIESMEKSNEIVNIRTSLLNLVDLAGSERQKDTHAEGMRLKEAGNINRSLSCLGQVITALVDVGNGKQRHVCYRDSKLTFLLRDSLGGNAKTAIIANVHPGSRCFGETLSTLNFAQRAKLIKNKAVVNEDTQGNVSQLQAEVKRLKEQLAELASGQTPPESFLTRDKKKTNYMEYFQEAMLFFKKSEQEKKSLIEKVTQLEDLTLKKEKFIQSNKMIVKFREDQIIRLEKLHKESRGGFLPEEQDRLLSELRNEIQTLREQIEHHPRVAKYAMENHSLREENRRLRLLEPVKRAQEMDAQTIAKLEKAFSEISGMEKSDKNQQGFSPKAQKEPCLFANTEKLKAQLLQIQTELNNSKQEYEEFKELTRKRQLELESELQSLQKANLNLENLLEATKACKRQEVSQLNKIHAETLKIITTPTKAYQLHSRPVPKLSPEMGSFGSLYTQNSSILDNDILNEPVPPEMNEQAFEAISEELRTVQEQMSALQAKLDEEEHKNLKLQQHVDKLEHHSTQMQELFSSERIDWTKQQEELLSQLNVLEKQLQETQTKNDFLKSEVHDLRVVLHSADKELSSVKLEYSSFKTNQEKEFNKLSERHMHVQLQLDNLRLENEKLLESKACLQDSYDNLQEIMKFEIDQLSRNLQNFKKENETLKSDLNNLMELLEAEKERNNKLSLQFEEDKENSSKEILKVLEAVRQEKQKETAKCEQQMAKVQKLEESLLATEKVISSLEKSRDSDKKVVADLMNQIQELRTSVCEKTETIDTLKQELKDINCKYNSALVDREESRVLIKKQEVDILDLKETLRLRILSEDIERDMLCEDLAHATEQLNMLTEASKKHSGLLQSAQEELTKKEALIQELQHKLNQKKEEVEQKKNEYNFKMRQLEHVMDSAAEDPQSPKTPPHFQTHLAKLLETQEQEIEDGRASKTSLEHLVTKLNEDREVKNAEILRMKEQLREMENLRLESQQLIEKNWLLQGQLDDIKRQKENSDQNHPDNQQLKNEQEESIKERLAKSKIVEEMLKMKADLEEVQSALYNKEMECLRMTDEVERTQTLESKAFQEKEQLRSKLEEMYEERERTSQEMEMLRKQVECLAEENGKLVGHQNLHQKIQYVVRLKKENVRLAEETEKLRAENVFLKEKKRSES
